In article PMC10526669 one finds binding data, which are given here for two molecules.

Sequences of proteins named here, by UniProt entry; tags and fusion partners are left off.
UniProt P40763: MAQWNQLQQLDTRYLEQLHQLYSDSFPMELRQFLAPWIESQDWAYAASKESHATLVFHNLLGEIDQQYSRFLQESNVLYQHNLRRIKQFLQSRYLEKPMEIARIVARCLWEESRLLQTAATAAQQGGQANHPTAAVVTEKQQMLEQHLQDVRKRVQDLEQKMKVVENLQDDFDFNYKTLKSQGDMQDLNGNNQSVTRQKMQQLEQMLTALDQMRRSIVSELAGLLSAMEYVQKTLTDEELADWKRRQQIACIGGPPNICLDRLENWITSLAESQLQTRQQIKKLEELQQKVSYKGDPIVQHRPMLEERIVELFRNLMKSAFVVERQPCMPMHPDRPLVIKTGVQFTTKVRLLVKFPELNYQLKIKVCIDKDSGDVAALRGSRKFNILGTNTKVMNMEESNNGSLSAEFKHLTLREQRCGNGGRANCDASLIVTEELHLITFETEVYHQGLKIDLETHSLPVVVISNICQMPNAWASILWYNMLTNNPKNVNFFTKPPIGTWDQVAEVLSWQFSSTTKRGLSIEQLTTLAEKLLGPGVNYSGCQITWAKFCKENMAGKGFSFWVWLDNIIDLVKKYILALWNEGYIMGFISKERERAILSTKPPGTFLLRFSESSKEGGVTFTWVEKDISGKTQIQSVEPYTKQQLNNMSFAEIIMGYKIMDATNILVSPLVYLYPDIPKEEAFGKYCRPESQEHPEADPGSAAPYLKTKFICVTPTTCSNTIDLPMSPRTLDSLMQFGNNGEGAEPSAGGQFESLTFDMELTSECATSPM
UniProt P52294: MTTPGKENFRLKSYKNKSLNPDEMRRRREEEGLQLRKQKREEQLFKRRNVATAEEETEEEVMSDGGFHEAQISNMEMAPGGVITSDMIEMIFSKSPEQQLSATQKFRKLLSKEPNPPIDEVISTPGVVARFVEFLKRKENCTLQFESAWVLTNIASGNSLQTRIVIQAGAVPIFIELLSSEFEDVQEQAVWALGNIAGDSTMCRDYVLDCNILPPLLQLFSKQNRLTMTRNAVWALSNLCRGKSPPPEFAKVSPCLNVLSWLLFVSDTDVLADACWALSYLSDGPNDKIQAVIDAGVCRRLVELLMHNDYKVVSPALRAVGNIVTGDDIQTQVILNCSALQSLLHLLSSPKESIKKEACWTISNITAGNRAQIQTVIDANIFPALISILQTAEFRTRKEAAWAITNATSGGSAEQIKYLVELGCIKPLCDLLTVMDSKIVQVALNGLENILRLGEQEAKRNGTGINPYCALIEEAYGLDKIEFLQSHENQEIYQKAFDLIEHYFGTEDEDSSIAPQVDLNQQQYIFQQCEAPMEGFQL

These are yes or no findings as the source states them, for the method shown. Binding seen in cells or lysates may run through a third protein. Some results given as binding are weak or reduced against the parent protein; the word gives no strength.

The target in test [1] is Signal transducer and activator of transcription 3 (STAT3), endogenous human (human (endogenous in HT-29, SW480 and human CRC tissue)) (UniProt P40763). Nature of the test: co-IP; endogenous proteins in total lysates (500 μg) of HT-29 and SW480 cells treated with 20 ng/mL IL-6 or vehicle for 2 h; IP with anti-Trx-1 or anti-STAT3 antibody or control IgG on protein G beads, 1 h at room temperature; immunoblot. In general terms: In western blotting, separated proteins are transferred to a membrane and probed.

Test [2] shares this target. Description: co-IP; nuclear and cytosolic extracts of HT-29 cells without or with IL-6; IP with anti-Trx-1 or anti-STAT3; immunoblot.
Test [3] shares this target. Description: co-IP; human CRC tissue lysates; IP with anti-Trx-1 or anti-STAT3 antibody; immunoblot with anti-pSTAT3, anti-Kpnα1 or anti-Trx-1.
The target in test [4] is karyopherin α1 (Kpnα1), endogenous human (human (endogenous in HT-29, SW480 and human CRC tissue)) (UniProt P52294). Nature of the test: co-IP; lysates of HT-29 cells stably expressing WT-Trx-1, MT-Trx-1, shTrx-1 or control vector, without or with IL-6; IP with anti-Trx-1 or anti-Kpnα1 antibody; immunoblot.

B1: Thioredoxin-1 (Trx-1), endogenous human (protein, UniProt P10599 1-105)
chain: MVKQIESKTAFQEALDAAGDKLVVVDFSATWCGPCKMIKPFFHSLSEKYSNVIFLEVDVDDCQDVASECEVKCMPTFQFFKKGQKVGEFSGANKEKLEATINELV
Take B1: the binding entry in test [1], in test [2] and in test [3] was “binds” in each case.

B2: WT-Trx-1 (human wild-type Trx-1, lentivirally expressed) (protein, UniProt P10599 1-105)
chain: B1 chain
On to B2, for which the binding entry in test [4] is given as “binds”.
